Binding data for 11 substances are collected here from PMC4457826.

Protein sequences, listed by entry. Tags and fused reporters are not part of them. Lines headed by an entry give the natural chain unless they say otherwise; changes in a name come on top. Chains listed by the source or under a name are the forms on record and can include a tag or linker.
UniProt Q93009: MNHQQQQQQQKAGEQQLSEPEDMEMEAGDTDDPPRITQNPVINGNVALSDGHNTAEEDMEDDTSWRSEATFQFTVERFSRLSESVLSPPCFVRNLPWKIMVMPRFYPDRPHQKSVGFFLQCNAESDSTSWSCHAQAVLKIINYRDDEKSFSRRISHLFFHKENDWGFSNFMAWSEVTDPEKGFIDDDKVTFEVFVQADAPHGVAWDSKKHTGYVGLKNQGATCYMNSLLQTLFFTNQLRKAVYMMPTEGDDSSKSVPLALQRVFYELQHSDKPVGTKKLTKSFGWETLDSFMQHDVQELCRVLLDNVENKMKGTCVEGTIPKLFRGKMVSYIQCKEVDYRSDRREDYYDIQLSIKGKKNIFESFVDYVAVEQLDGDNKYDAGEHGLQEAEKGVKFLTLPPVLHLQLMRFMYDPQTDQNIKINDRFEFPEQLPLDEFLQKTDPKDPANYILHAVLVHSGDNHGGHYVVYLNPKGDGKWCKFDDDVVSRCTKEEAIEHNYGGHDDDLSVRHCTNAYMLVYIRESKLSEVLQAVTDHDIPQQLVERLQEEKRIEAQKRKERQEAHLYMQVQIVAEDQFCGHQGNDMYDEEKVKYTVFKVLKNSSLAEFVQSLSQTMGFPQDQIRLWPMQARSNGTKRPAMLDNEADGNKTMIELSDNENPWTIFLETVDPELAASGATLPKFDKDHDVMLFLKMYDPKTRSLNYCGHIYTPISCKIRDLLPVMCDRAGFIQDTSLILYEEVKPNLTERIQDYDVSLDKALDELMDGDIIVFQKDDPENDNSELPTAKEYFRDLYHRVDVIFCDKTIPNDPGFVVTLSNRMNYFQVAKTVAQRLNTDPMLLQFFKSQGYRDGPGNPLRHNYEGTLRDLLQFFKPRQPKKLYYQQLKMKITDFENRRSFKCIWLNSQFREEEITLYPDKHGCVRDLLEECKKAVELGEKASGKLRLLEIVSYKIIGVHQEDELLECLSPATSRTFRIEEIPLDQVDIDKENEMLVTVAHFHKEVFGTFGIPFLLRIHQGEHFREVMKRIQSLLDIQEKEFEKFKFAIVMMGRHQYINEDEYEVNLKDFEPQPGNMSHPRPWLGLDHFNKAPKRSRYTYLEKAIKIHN
USP7 Ubl123 D762A/D764A (Q93009, form named): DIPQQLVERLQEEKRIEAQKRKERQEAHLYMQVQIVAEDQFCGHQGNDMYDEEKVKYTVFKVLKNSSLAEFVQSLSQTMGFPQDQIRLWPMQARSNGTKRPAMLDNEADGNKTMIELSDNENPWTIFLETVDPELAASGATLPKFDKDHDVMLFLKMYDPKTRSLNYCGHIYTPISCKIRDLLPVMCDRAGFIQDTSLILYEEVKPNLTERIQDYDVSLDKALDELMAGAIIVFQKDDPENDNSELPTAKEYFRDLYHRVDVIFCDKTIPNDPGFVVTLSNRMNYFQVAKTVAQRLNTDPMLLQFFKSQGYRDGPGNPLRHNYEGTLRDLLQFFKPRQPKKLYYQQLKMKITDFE
USP7 Ubl123 D764A (Q93009, form named): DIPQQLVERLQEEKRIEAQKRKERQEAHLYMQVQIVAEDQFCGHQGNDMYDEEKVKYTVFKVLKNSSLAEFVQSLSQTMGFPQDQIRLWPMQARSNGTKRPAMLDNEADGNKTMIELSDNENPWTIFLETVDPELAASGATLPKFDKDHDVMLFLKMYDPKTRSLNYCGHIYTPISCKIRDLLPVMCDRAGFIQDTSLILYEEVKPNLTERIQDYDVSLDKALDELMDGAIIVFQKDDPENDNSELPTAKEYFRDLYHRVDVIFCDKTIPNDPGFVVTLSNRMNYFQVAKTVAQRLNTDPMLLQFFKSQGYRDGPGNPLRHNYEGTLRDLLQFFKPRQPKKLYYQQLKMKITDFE
USP7 Ubl123 E759A (Q93009, form named): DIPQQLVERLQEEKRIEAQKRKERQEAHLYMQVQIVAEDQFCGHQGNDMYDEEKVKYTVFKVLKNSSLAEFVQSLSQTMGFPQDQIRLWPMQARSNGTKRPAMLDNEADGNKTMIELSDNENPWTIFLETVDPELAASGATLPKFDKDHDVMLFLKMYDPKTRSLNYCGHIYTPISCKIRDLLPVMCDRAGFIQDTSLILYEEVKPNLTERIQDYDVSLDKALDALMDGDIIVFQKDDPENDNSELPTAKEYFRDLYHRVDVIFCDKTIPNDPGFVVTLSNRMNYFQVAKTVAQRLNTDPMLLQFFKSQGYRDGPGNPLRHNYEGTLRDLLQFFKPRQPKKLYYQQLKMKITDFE
USP7-CTD D762A (Q93009, form named): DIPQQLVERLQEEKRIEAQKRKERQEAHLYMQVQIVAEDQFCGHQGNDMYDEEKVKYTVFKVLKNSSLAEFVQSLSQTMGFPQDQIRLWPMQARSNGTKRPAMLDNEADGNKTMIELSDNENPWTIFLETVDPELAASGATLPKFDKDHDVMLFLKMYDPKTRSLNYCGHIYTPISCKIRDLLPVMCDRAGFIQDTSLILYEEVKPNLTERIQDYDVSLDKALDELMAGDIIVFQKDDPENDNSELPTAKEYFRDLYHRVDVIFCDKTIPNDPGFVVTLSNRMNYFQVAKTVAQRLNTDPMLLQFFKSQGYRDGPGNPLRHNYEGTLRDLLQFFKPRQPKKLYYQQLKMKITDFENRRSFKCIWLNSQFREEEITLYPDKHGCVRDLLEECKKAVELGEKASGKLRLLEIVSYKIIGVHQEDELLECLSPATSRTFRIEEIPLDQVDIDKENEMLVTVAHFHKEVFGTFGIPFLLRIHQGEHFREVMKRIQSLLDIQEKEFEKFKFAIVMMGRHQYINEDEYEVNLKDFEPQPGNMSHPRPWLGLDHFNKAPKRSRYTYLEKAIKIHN
USP7-CTD D762A/D764A (Q93009, form named): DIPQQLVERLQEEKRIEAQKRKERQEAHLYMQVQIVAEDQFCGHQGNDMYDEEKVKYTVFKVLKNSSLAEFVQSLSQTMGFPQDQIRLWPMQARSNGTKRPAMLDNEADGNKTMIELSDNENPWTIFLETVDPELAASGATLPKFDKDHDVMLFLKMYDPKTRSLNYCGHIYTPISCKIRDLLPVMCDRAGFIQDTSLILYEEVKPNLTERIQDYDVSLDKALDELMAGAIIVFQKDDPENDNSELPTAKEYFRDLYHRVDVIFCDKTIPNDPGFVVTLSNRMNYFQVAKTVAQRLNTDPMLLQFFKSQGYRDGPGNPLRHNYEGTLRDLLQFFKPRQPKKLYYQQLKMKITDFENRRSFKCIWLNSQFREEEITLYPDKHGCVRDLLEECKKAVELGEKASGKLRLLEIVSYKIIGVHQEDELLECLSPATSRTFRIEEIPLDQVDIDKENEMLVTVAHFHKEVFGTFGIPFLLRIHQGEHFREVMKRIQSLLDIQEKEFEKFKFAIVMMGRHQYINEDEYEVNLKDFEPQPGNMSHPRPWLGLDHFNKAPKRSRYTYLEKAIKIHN
USP7-CTD E759A (Q93009, form named): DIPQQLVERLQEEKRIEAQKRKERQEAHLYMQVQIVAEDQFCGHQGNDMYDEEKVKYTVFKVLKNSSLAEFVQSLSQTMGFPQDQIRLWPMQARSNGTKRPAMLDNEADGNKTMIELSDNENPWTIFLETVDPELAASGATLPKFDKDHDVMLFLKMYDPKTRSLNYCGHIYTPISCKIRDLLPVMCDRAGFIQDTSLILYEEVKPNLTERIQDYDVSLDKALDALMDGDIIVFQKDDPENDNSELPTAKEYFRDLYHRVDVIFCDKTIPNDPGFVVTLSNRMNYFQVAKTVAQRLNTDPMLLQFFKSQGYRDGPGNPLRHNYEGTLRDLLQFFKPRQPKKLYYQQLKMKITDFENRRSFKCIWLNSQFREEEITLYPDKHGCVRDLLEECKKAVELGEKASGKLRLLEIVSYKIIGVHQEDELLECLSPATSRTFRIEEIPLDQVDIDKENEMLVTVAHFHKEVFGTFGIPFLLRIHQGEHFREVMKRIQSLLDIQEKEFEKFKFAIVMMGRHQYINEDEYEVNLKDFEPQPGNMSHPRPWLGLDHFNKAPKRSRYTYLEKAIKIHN
USP7-CTD D764A (Q93009, form named): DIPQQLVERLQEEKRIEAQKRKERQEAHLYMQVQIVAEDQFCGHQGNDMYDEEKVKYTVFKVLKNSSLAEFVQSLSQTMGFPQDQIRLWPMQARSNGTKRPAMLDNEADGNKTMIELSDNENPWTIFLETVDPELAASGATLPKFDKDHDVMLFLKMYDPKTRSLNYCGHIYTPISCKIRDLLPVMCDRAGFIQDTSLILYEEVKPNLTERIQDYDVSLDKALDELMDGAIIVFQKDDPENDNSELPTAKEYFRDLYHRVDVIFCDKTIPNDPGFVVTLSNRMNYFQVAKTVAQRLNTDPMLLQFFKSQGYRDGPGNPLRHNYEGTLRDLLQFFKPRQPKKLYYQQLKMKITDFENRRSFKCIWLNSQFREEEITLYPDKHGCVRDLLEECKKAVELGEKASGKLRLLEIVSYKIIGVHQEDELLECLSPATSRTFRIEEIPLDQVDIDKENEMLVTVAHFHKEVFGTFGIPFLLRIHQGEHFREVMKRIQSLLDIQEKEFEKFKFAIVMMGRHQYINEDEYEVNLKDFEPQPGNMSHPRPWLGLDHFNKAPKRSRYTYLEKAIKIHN
USP7 Ubl123 D762A (Q93009, form named): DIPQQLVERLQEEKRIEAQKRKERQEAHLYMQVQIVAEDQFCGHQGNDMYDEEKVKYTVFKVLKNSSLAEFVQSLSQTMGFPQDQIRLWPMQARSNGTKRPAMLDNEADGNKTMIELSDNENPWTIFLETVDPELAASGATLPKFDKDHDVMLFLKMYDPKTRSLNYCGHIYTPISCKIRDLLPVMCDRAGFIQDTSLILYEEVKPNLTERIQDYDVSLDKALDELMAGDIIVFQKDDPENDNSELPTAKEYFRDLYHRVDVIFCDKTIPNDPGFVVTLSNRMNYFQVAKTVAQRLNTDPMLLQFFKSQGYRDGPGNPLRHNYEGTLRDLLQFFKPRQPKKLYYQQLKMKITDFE
UniProt P49915: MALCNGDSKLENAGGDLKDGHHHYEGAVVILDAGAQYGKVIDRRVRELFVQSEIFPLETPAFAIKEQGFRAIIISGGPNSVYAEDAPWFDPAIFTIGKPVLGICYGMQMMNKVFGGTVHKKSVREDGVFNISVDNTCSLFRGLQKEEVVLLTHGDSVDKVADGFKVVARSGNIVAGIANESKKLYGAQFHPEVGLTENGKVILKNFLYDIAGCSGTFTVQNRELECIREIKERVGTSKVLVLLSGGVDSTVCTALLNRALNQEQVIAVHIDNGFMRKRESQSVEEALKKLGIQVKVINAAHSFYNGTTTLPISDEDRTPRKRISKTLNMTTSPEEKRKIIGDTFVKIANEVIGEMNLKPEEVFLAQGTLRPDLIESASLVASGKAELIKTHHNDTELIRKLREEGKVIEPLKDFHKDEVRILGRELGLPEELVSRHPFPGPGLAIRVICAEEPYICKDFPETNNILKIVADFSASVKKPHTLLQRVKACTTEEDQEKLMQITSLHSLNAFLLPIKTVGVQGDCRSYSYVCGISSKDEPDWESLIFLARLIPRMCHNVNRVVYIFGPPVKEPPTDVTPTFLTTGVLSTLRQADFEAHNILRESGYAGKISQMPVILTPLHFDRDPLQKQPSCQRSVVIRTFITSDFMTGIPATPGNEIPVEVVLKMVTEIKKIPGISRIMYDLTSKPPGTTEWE

No constants are given. Whether binding was seen depends on the method and setting. For some assays here: Binding seen in cells or lysates may run through a third protein. Some results given as binding are weak or reduced against the parent protein; the word gives no strength.

The target of one assay is myc-tagged WT USP7 (human) (UniProt Q93009). As to the kind of experiment: co-IP; 293T cells transfected with myc-USP7 (with or without ICP0); RIPA lysate, anti-myc antibody and protein A/G agarose; Western blot for ICP0, GMPS or UHRF1. Background: A western blot detects proteins with antibodies after separation by electrophoresis.
For “endogenous GMPS (from UniProt P49915 1-693)”, the binding result is “binds”.

Another assay addresses GST-ICP0 615-629 (herpes simplex virus 1 (HSV-1)). As to the kind of experiment: pull-down; GST pull-down: 250 μg USP7 protein with 250 μg GST fusion in 50 mM Tris pH 8.0, 100 mM NaCl, 5 mM DTT, 5% glycerol, on glutathione-sepharose overnight at 4°C; eluted with 30 mM reduced glutathione; Coomassie stained gel; both purified.
Consider “USP7 Ubl123 D762A/D764A (from UniProt Q93009 535-889) (domain or fragment)”, for which the binding entry is listed as “no binding (tested: 250 μg of each protein)”.
On to “USP7 Ubl123 D764A (from UniProt Q93009 535-889) (domain or fragment)”, for which the binding result is given as “no binding (tested: 250 μg of each protein)”.
Still for that read-out and setting: the entry for “USP7 Ubl123 E759A (from UniProt Q93009 535-889) (domain or fragment)” is “no binding (tested: 250 μg of each protein)”; for “USP7 Ubl345 (776-1102) (from UniProt Q93009 776-1102) (domain or fragment)” it is “no binding (tested: 250 μg of each protein)”; for “USP7-CTD D762A (from UniProt Q93009 535-1102) (domain or fragment)” it is “no binding (tested: 250 μg of each protein)”.
Consider “USP7-CTD D762A/D764A (from UniProt Q93009 535-1102) (domain or fragment)”, for which the binding entry was “no binding (tested: 250 μg of each protein)”.
For the substance “USP7 Ubl45 (886-1102) (from UniProt Q93009 886-1102) (domain or fragment)”, the binding result was “no binding (tested: 250 μg of each protein)”.
In the case of “USP7-CTD E759A (from UniProt Q93009 535-1102) (domain or fragment)”, the binding entry is “no binding (tested: 250 μg of each protein)”.
On to “USP7-CTD D764A (from UniProt Q93009 535-1102) (domain or fragment)”, for which the binding result was “no binding (tested: 250 μg of each protein)”.
For “USP7 Ubl123 D762A (from UniProt Q93009 535-889) (domain or fragment)”, the binding entry is listed as “no binding (tested: 250 μg of each protein)”.
